The text below walks through data of PubChem BioAssay AID2685 (National Center for Advancing Translational Sciences (NCATS), 2010).

As a reminder, the AC50 is the concentration at which the activity in the assay is half-maximal. Read a high AC50 as activity only at high concentration.

SMILES strings stand for the structures. This is one part of the list. Shown are side measurements of this screen, not its main read-out; they come without a call. Most of these compounds were active or inconclusive in the main read-out, so they are no random draw. Words in brackets tell the shape of the fitted curve; partial curves, single points and poor fits give uncertain potencies.

A short description of this assay: qHTS Assay for Lipid Storage Modulators in Drosophila S3 Cells.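 As to cell number change: cells counted by Cell Tracker Red CMTPX staining in the red channel.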 As to conditions: BODIPY lipid droplet fluorescence, 18-24 h; for cell number change: measured here: cell count max response, cells fed with added oleic acid. The method in brief:
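Laser-scanning cytometry quantifies lipid droplet accumulation (500–530 nm total intensity; droplet/cell object ratio) in oleic acid-fed (400 uM added) Drosophila S3 cells treated with a concentration series. 20 uM Triacsin C defined 100% inhibition.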
(qHTS replaces the single test concentration by a dilution series.)

Setting [1] is: measured here: lipid fluorescence (Fed channel) AC50, cells fed with added oleic acid.
The mark [2] stands for this setting: measured here: cell number channel AC50, cells fed with added oleic acid.

As for `Cc1nc(N2CCCCC2)c2c(C)c(C(=O)Nc3ccc4c(c3)OCCO4)sc2n1`, the cell number change was -23.3%. Moreover, the AC50 under setting [1] was 11.6 µM [falling, partial curve, poor fit]. Regarding `Cc1cccc(OCC(=O)Nc2ccc3c(c2)OCCO3)c1`, the cell number change is 93.8%. The half-maximal activity concentration (AC50) under setting [2] is 25.9 µM [rising, single point]. Also, the AC50 under setting [1] is 29.1 µM [rising, single point]. Consider `N=C(N)SCc1ccc(Cl)cc1Cl`, for which the cell number change amounted to 17%. In addition, the half-maximal activity concentration (AC50) under setting [1] is 25.9 µM [rising, single point].

Regarding `O=C(Nc1cc(S(=O)(=O)Nc2ccc(Cl)cc2)ccc1N1CCCCC1)c1ccc(F)cc1`, the cell number change was -11.6%. Further, the concentration at half-maximal activity (AC50) under setting [1] was 29.1 µM [falling, single point]. For `CC1=NOC(=O)/C1=C\c1ccc(-c2cccc(Cl)c2)o1`, the cell number change is -56.3%. The concentration at half-maximal activity (AC50) under setting [2] is 29.1 µM [falling, single point]. With `COc1ccc(/C=C(\C#N)C(=O)NCc2ccccc2)cc1O`, the cell number change is -16.2%. For the same compound, the AC50 under setting [1] was 29.1 µM [rising, single point].

Take `O=C(COC(=O)c1cc(=O)[nH]c2ccccc12)NCc1ccc(F)cc1`: the cell number change turned out to be 1.79%. For the same compound, the AC50 under setting [1] is 29.1 µM [rising, single point]. With `COc1ccc2nc(N(CCN(C)C)C(=O)c3ccc4ccccc4c3)sc2c1`, the cell number change was found to be 19.8%. Also, the AC50 under setting [1] is 6.51 µM [rising, partial curve]. On to `Cc1ccc(S(=O)(=O)N2[C@@H](c3ccc(F)cc3)C(C(=O)O)=CC[C@H]2c2ccc(C(C)C)cc2)cc1`, for which the cell number change is -42.4%. In addition, under setting [2], the AC50 was 4.11 µM [falling, full curve]. For the same compound, the half-maximal activity concentration (AC50) under setting [1] is 20.6 µM [falling, single point]. With `Cc1cccc(OCC2=NS(=O)(=O)c3ccccc3N2)c1`, the AC50 under setting [2] was 0.461 µM [rising, single point]. With `Cc1ccnn2cc3c(=O)n(C)c(=O)n(C)c3c12`, the cell number change was -7.79%. The half-maximal activity concentration (AC50) under setting [2] is 1.64 µM [falling, partial curve]. Consider `Cc1ccc(S(=O)(=O)Nc2ccc(Br)cc2/C=N/n2cnnc2)cc1`, for which the cell number change stood at 43%. The AC50 under setting [2] is 29.1 µM [rising, single point]. As to `Cc1cc(NC(=O)CCc2ccc(S(=O)(=O)N3CCOCC3)cc2)n(-c2ccccc2)n1`, under setting [1], the AC50 was 20.6 µM [falling, partial curve]. Take `C=CCN(C(=O)CCC(=O)Nc1cc(C)on1)C(C(=O)NC1CCCC1)c1ccc(Cl)cc1` (stereo not drawn): the cell number change was 10%. Moreover, the AC50 under setting [1] was 29.1 µM [rising, partial curve, poor fit]. For `CC(=O)Nc1cccc(OCCCOc2ccc([N+](=O)[O-])cc2)c1`, the cell number change amounted to 17.2%. In addition, under setting [1], the AC50 is 3.26 µM [rising, partial curve]. Take `COc1ccccc1CNCC(c1ccccc1)c1ccccc1`: the concentration at half-maximal activity (AC50) under setting [1] is 0.231 µM [falling, full curve, poor fit]. Turning to `COc1cccc(C(=O)NNC(=O)c2cccc(F)c2)c1`, the cell number change worked out at 24%. For the same compound, the AC50 under setting [1] was 6.51 µM [rising, single point]. Take `C=CCNC(=O)COc1c(C)ccc(C)c1C`: the cell number change was found to be 52.5%.

For the compound `OCC[C@@H]1C[C@H](O)[C@@H](O)[C@@]2(OCCCc3ccccc32)O1`, the cell number change was found to be 34.4%. In addition, under setting [2], the AC50 is 2.31 µM [rising, partial curve, poor fit]. For the compound `CCCc1nnc(NC(=O)c2c(O)c3c([nH]c2=O)CCCC3)s1`, the cell number change was determined as 3.86%. The half-maximal activity concentration (AC50) under setting [1] is 7.31 µM [rising, partial curve, poor fit].

On to `O=S1(=O)N=C(Nc2ccc(O)cc2)c2ccccc21`, for which the cell number change was -11.3%. For `O=c1[nH]c(-c2ccccn2)cc2ccccc12`, the cell number change was 1.49%. Also, the half-maximal activity concentration (AC50) under setting [2] was 6.51 µM [rising, single point]. As for `O=C(N/N=C/c1ccc([N+](=O)[O-])cc1)c1ccc(COc2ccccc2-c2ccccc2)cc1`, the AC50 under setting [1] was 0.58 µM [rising, single point].

With `CCc1ccc(NC(=S)N2CCN(c3cccc(C(F)(F)F)c3)CC2)cc1`, the cell number change is -50.9%. Further, under setting [2], the AC50 was 25.9 µM [falling, single point]. With `CCOC(=O)c1sc(NC(=O)c2ccco2)nc1-c1ccccc1`, the cell number change was -58.8%. Also, the concentration at half-maximal activity (AC50) under setting [2] was 29.1 µM [falling, single point].

For the compound `CC(NC(=S)Nc1ccccc1Cl)C(c1cccs1)N1CCCC1` (stereo not drawn), the cell number change was -32.2%. The concentration at half-maximal activity (AC50) under setting [2] is 4.61 µM [falling, partial curve, poor fit]. With `Cc1cc(OCC(O)CN2C(C)CCCC2C)ccc1C(C)C` (stereo not drawn), the cell number change was -25%. Moreover, the half-maximal activity concentration (AC50) under setting [1] is 32.6 µM [falling, partial curve, poor fit]. For `O=C(NCc1cccnc1)c1cccc(S(=O)(=O)N2CCCC2)c1`, the cell number change is -9.52%. The concentration at half-maximal activity (AC50) under setting [1] is 18.4 µM [rising, single point].

As for `CN(Cc1ccccc1)C(=O)C(=O)c1cn(CC(=O)N2CCCC2)c2ccccc12`, the cell number change was 10.4%. As to `COc1ccc(-c2nc(SCc3ccccc3)n(C(=O)c3ccco3)n2)cc1`, the cell number change is -14%. For the same compound, under setting [1], the AC50 was 29.1 µM [falling, single point]. In the case of `Cc1ccc(CC2S/C(=C(/C#N)C(=O)NCc3ccco3)N(c3ccccc3)C2=O)cc1` (stereo not drawn), the cell number change is -0.388%. For the same compound, the concentration at half-maximal activity (AC50) under setting [1] was 9.2 µM [rising, partial curve]. For the compound `Cc1ccc(C)c(NS(=O)(=O)c2cc(C(=O)N3CCc4ccccc4C3)ccc2Cl)c1`, the cell number change was found to be 5.44%. On to `COc1ccccc1C1(CCNS(=O)(=O)c2ccc(C)cc2)CCOC(C(C)C)C1` (stereo not drawn), for which the cell number change stood at 13.1%. Besides, the AC50 under setting [1] is 6.51 µM [falling, single point]. Regarding `Nc1cc(S(=O)(=O)Nc2ccc(Br)cc2)ccc1Cl`, the cell number change was -61.6%. In addition, the AC50 under setting [2] was 16.4 µM [falling, single point]. For the same compound, the AC50 under setting [1] was 18.4 µM [falling, single point]. Regarding `CCOc1ccc2[nH]c(=O)c(CN(Cc3ccccc3)C(=O)N3CCCC3)cc2c1`, the AC50 under setting [2] is 1.3 µM [rising, partial curve]. Consider `NNC(=O)c1sccc1OCc1ccc(F)cc1`, for which the cell number change was -28.9%. For the compound `CCS(=O)(=O)c1nc(S(=O)(=O)c2ccc(C)cc2)c(N2CC(C)OC(C)C2)s1` (stereo not drawn), the cell number change is -18.3%. For the same compound, under setting [1], the AC50 is 20.6 µM [falling, single point]. `CCNS(=O)(=O)c1ccc(NC(=O)c2ccccc2OCC)cc1`: the cell number change amounted to 4.43%. The AC50 under setting [1] is 18.4 µM [rising, partial curve].

On to `Cn1c(C=O)c(C#CC(C)(C)O)c2ccccc21`, for which the cell number change is -4.29%. Under setting [1], the AC50 is 0.731 µM [falling, partial curve]. Turning to `CCOC(=O)c1c(S(=O)(=O)NCc2ccc(C)o2)c(C)n(C)c1C`, the cell number change is -6.42%. Further, under setting [1], the AC50 was 29.1 µM [falling, single point].
